Results are given in words; binding and its absence hold for the method and conditions named. Some binding calls cover weakened binding; strength is not graded here.
Target: Rhodamine-tagged mouse full-length ISG15 propargylamide probe (mouse) (UniProt Q64339)
Assay: activity-based probe labelling

The chains behind the UniProt entries cited, without tags or fusion partners. Residues count along the entry.
UniProt Q64339, residues 1-155: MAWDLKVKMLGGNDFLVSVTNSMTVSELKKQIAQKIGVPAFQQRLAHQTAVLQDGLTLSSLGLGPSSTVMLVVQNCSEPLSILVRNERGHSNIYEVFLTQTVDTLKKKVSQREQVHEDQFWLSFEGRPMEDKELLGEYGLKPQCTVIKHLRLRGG
UniProt Q9Y5T5, residues 196-823: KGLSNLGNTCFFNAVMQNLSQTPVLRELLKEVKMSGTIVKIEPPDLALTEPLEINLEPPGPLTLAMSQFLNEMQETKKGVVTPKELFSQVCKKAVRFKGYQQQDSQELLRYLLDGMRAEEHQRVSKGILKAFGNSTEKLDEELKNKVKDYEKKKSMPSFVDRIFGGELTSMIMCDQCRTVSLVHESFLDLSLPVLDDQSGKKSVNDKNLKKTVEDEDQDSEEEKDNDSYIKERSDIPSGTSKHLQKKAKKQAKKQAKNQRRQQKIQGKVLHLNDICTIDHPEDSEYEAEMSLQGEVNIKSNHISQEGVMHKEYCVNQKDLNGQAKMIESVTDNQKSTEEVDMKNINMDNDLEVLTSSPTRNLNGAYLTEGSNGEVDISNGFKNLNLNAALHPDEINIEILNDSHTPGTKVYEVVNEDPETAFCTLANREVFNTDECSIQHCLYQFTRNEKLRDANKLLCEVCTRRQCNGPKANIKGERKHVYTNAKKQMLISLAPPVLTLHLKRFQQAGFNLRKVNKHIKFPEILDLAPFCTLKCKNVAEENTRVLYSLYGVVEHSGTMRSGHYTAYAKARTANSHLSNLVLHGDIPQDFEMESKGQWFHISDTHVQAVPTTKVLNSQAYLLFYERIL

binding: binds
Substance: recombinant human USP16 catalytic domain (CD; aa 196-823) (from UniProt Q9Y5T5 196-823) (domain or fragment)

— doi:10.1101/2023.06.26.546496
